Paper doi:10.1101/209643 (bioRxiv, 2017)
No constants are given. Whether binding was seen depends on the method and setting. For part of these data: Binding seen in cells or lysates may run through a third protein. Tags and fused reporters may be left off the sequences shown. Some entries that bind do so weakly or less than the wild type.

T1: 6XHIS-tagged Cdc12 (S. cerevisiae) (UniProt P32468)
T1 sequence: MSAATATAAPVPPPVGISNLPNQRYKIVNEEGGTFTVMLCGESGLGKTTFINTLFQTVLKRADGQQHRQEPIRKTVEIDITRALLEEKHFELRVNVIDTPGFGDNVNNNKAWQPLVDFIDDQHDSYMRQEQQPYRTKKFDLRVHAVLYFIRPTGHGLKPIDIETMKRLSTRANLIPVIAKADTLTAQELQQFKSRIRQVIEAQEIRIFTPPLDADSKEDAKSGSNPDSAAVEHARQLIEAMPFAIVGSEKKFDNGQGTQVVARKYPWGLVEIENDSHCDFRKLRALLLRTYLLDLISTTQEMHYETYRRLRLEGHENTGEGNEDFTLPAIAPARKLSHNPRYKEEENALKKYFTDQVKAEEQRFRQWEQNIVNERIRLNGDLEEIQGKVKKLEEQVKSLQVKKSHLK

T2: 6XHIS-tagged Cdc12 T75A (S. cerevisiae) (UniProt P32468)
T2 sequence: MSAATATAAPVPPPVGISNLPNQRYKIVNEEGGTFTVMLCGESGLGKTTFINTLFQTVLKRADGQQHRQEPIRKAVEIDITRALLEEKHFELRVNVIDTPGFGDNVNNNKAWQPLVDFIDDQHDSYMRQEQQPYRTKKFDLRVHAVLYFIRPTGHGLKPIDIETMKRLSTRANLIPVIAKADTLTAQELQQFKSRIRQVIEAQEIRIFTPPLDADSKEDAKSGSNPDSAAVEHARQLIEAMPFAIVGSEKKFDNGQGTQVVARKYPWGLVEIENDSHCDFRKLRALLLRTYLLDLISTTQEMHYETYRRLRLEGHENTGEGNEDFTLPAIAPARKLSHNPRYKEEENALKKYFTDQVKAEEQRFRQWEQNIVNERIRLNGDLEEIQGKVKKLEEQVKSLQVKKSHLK

T3: Cdc11-GFP (yeast extract) (S. cerevisiae), P32458
T3 chain: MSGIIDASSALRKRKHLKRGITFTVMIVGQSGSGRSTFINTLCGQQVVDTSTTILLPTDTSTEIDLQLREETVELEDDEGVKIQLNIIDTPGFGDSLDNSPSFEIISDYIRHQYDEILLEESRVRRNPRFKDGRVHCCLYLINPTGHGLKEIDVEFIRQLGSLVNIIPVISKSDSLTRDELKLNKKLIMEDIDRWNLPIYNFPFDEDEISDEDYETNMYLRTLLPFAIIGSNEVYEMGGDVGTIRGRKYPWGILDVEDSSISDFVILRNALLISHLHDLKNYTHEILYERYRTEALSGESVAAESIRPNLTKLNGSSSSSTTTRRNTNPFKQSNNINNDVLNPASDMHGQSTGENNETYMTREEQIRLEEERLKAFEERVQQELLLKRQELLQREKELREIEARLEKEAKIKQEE


How the values were obtained:
[1] = target: T1, 6XHIS-tagged Cdc12 (S. cerevisiae); experiment: co-purification of co-expressed proteins
[2] = target: T2, 6XHIS-tagged Cdc12 T75A (S. cerevisiae); experiment: co-purification of co-expressed proteins
[3] = target: T3, Cdc11-GFP (yeast extract) (S. …); experiment: single molecule pull-down; settings: remark: other sources report otherwise

| Binder | binding [1] | binding [2] | binding [3] |
| --- | --- | --- | --- |
| Cdc10 (protein, UniProt P25342 1-322) MDPLSSVQPASYVGFDTITNQIEHRLLKKGFQFNIMVVGQSGLGKSTLINTLFASHLIDSATGDDISALPVTKTTEMKISTHTLVEDRVRLNINVIDTPGFGDFIDNSKAWEPIVKYIKEQHSQYLRKELTAQRERFITDTRVHAILYFLQPNGKELSRLDVEALKRLTEIANVIPVIGKSDTLTLDERTEFRELIQNEFEKYNFKIYPYDSEELTDEELELNRSVRSIIPFAVVGSENEIEINGETFRGRKTRWSAINVEDINQCDFVYLREFLIRTHLQDLIETTSYIHYEGFRARQLIALKENANSRSSAHMSSNAIQR | binds | binds |  |
| Cdc3 (protein, UniProt P32457 1-520) MSLKEEQVSIKQDPEQEERQHDQFNDVQIKQESQDHDGVDSQYTNGTQNDDSERFEAAESDVKVEPGLGMGITSSQSEKGQVLPDQPEIKFIRRQINGYVGFANLPKQWHRRSIKNGFSFNLLCVGPDGIGKTTLMKTLFNNDDIEANLVKDYEEELANDQEEEEGQGEGHENQSQEQRHKVKIKSYESVIEENGVKLNLNVIDTEGFGDFLNNDQKSWDPIIKEIDSRFDQYLDAENKINRHSINDKRIHACLYFIEPTGHYLKPLDLKFMQSVYEKCNLIPVIAKSDILTDEEILSFKKTIMNQLIQSNIELFKPPIYSNDDAENSHLSERLFSSLPYAVIGSNDIVENYSGNQVRGRSYPWGVIEVDNDNHSDFNLLKNLLIKQFMEELKERTSKILYENYRSSKLAKLGIKQDNSVFKEFDPISKQQEEKTLHEAKLAKLEIEMKTVFQQKVSEKEKKLQKSETELFARHKEMKEKLTKQLKALEDKKKQLELSINSASPNVNHSPVPTKKKGFLR | binds | binds |  |

The remaining lines, values ahead:

| binding [1] | binding [2] | binding [3] | Binder |
| --- | --- | --- | --- |
| binds |  |  | Shs1-GFP (protein, UniProt Q07657 1-551) MSTASTPPINLFRRKKEHKRGITYTMLLCGPAGTGKTAFANNLLETKIFPHKYQYGKSNASISSNPEVKVIAPTKVVSFNSKNGIPSYVSEFDPMRANLEPGITITSTSLELGGNKDQGKPEMNEDDTVFFNLIMTHGIGENLDDSLCSEEVMSYLEQQFDIVLAEETRIKRNPRFEDTRVHVALYFIEPTGHGLREVDVELMKSISKYTNVLPIITRADSFTKEELTQFRKNIMFDVERYNVPIYKFEVDPEDDDLESMEENQALASLQPFAIITSDTRDSEGRYVREYPWGIISIDDDKISDLKVLKNVLFGSHLQEFKDTTQNLLYENYRSEKLSSVANAEEIGPNSTKRQSNAPSLSNFASLISTGQFNSSQTLANNLRADTPRNQVSGNFKENEYEDNGEHDSAENEQEMSPVRQLGREIKQENENLIRSIKTESSPKFLNSPDLPERTKLRNISETVPYVLRHERILARQQKLEELEAQSAKELQKRIQELERKAHELKLREKLINQNKLNGSSSSINSLQQSTRSQIKKNDTYTDLASIASGRD |
|  |  | no binding | Shs1-mCherry (yeast extract), Q07657 1-551 (protein) MSTASTPPINLFRRKKEHKRGITYTMLLCGPAGTGKTAFANNLLETKIFPHKYQYGKSNASISSNPEVKVIAPTKVVSFNSKNGIPSYVSEFDPMRANLEPGITITSTSLELGGNKDQGKPEMNEDDTVFFNLIMTHGIGENLDDSLCSEEVMSYLEQQFDIVLAEETRIKRNPRFEDTRVHVALYFIEPTGHGLREVDVELMKSISKYTNVLPIITRADSFTKEELTQFRKNIMFDVERYNVPIYKFEVDPEDDDLESMEENQALASLQPFAIITSDTRDSEGRYVREYPWGIISIDDDKISDLKVLKNVLFGSHLQEFKDTTQNLLYENYRSEKLSSVANAEEIGPNSTKRQSNAPSLSNFASLISTGQFNSSQTLANNLRADTPRNQVSGNFKENEYEDNGEHDSAENEQEMSPVRQLGREIKQENENLIRSIKTESSPKFLNSPDLPERTKLRNISETVPYVLRHERILARQQKLEELEAQSAKELQKRIQELERKAHELKLREKLINQNKLNGSSSSINSLQQSTRSQIKKNDTYTDLASIASGRD |
